Assay results taken from article PMC3250963 (EJNMMI Research, 2011).
Some peptides are written in HELM: one residue between dots, names in brackets for other building blocks, links after the first $.

Experiment: general procedure: Boc solid-phase peptide synthesis; MBHA resin (0.4 mmol/g); DIC
Conditions: conjugation step; for final HPLC purity: 214 nm; for final purity (method not given): CZE 214 nm

Substance	final HPLC purity [%]	final purity (method not given) [%]
PEPTIDE1{I.K.P.C.W.R.[Nle].R.Y.[am]}|PEPTIDE2{I.K.P.C.W.R.[Nle].R.Y.[am]}$PEPTIDE1,PEPTIDE2,4:R3-4:R3$$$V2.0	88	84
PEPTIDE1{I.K.P.C.W.R.[Nle].R.Y.[am]}|PEPTIDE2{I.K.P.C.W.R.[Nle].R.Y.[am]}|PEPTIDE3{[DOTA]}|PEPTIDE4{[DOTA]}$PEPTIDE1,PEPTIDE2,4:R3-4:R3|PEPTIDE1,PEPTIDE3,2:R3-1:R2|PEPTIDE2,PEPTIDE4,2:R3-1:R2$$$V2.0	92	96
PEPTIDE1{I.N.P.C.W.R.[Nle].R.Y.[am]}|PEPTIDE2{I.N.P.C.W.R.[Nle].R.Y.[am]}$PEPTIDE1,PEPTIDE2,4:R3-4:R3$$$V2.0	94	90
PEPTIDE1{I.[Dpr].P.C.W.R.[Nle].R.Y.[am]}|PEPTIDE2{I.N.P.C.W.R.[Nle].R.Y.[am]}$PEPTIDE1,PEPTIDE2,4:R3-4:R3$$$V2.0	99	99
PEPTIDE1{I.[Dpr].P.C.W.R.[Nle].R.Y.[am]}|PEPTIDE2{I.N.P.C.W.R.[Nle].R.Y.[am]}|PEPTIDE3{[DOTA]}$PEPTIDE1,PEPTIDE2,4:R3-4:R3|PEPTIDE1,PEPTIDE3,2:R3-1:R2$$$V2.0	98	97
PEPTIDE1{I.[Dpr].P.C.W.R.[Nle].R.Y.[am]}|PEPTIDE2{I.[Dpr].P.C.W.R.[Nle].R.Y.[am]}$PEPTIDE1,PEPTIDE2,4:R3-4:R3$$$V2.0	99	96
PEPTIDE1{I.[Dpr].P.C.W.R.[Nle].R.Y.[am]}|PEPTIDE2{I.[Dpr].P.C.W.R.[Nle].R.Y.[am]}|PEPTIDE3{[DOTA]}|PEPTIDE4{[DOTA]}$PEPTIDE1,PEPTIDE2,4:R3-4:R3|PEPTIDE1,PEPTIDE3,2:R3-1:R2|PEPTIDE2,PEPTIDE4,2:R3-1:R2$$$V2.0	94	93
PEPTIDE1{[DOTA].I.N.P.C.W.R.[Nle].R.Y.[am]}|PEPTIDE2{[DOTA].I.N.P.C.W.R.[Nle].R.Y.[am]}$PEPTIDE1,PEPTIDE2,5:R3-5:R3$$$V2.0	95	92
PEPTIDE1{[DOTA].I.N.P.C.Y.R.L.R.Y.[am]}|PEPTIDE2{[DOTA].I.N.P.C.Y.R.L.R.Y.[am]}$PEPTIDE1,PEPTIDE2,5:R3-5:R3$$$V2.0	97	96
